# Results: publication PMC3893208
# Sequences of proteins named here, by UniProt entry; tags and fusion partners are left off. A change or cut given only in a name is not applied to a line headed by its entry.
# UniProt P0AFC7: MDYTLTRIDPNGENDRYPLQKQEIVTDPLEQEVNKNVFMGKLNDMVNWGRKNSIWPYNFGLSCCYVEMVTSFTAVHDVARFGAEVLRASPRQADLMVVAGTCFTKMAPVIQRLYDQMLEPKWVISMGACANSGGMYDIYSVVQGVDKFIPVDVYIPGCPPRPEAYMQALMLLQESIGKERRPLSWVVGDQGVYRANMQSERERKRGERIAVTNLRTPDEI
# UniProt P31473: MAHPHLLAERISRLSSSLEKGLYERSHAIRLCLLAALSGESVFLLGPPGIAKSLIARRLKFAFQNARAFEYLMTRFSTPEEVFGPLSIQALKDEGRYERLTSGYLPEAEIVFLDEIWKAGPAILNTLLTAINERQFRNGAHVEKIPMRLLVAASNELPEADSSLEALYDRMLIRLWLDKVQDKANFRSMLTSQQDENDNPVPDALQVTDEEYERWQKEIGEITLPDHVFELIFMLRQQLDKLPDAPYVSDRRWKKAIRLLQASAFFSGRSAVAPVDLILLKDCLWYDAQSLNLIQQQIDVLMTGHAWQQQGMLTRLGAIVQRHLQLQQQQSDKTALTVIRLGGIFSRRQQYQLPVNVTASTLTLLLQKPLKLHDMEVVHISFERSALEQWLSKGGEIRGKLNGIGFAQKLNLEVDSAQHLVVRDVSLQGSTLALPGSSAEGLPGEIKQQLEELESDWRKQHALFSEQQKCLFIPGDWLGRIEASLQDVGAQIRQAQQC
# Results are given in words; binding and its absence hold for the method and conditions named. Binding seen in cells or lysates may run through a third protein. Some binding calls cover weakened binding; strength is not graded here. For some of these results: Sequences can lack the tags named with a protein.
# T1: NuoE-SPA (NADH:ubiquinone oxidoreductase I, cytoplasmic subunit E, C-terminal SPA tag) (E. coli (endogenous in DY330)) (UniProt P0AFD1)
# T1 sequence: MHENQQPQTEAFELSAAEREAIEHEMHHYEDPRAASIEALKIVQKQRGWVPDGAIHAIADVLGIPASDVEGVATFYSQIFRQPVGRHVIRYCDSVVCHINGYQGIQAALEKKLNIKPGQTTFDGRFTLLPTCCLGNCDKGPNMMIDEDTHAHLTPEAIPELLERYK
# T2: NuoG-SPA (NADH:ubiquinone oxidoreductase I, cytoplasmic subunit G, C-terminal SPA tag) (E. coli (endogenous in DY330)) (UniProt P33602)
# T2 sequence: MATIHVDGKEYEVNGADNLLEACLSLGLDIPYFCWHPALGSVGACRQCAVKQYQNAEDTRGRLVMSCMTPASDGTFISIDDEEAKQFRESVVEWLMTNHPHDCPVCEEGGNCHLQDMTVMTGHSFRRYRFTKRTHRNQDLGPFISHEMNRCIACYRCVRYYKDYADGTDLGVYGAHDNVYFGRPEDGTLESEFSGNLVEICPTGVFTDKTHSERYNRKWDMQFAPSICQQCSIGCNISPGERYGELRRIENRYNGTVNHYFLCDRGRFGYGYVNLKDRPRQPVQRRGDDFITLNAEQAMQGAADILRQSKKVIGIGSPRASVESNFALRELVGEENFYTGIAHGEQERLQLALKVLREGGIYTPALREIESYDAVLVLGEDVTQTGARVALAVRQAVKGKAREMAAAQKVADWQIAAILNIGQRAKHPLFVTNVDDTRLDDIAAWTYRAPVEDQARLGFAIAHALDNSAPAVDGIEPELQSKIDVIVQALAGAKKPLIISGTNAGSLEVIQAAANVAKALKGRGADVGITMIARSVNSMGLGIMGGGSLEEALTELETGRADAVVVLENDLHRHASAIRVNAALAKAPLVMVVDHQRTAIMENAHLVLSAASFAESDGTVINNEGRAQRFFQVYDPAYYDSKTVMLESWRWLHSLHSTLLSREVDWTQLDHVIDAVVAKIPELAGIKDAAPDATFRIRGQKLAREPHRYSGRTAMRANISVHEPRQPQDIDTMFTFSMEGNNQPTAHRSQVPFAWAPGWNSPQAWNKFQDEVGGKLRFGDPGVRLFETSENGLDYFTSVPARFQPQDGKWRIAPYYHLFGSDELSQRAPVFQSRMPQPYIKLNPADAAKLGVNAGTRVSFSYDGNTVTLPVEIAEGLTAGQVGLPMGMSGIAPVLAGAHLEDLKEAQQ
# T3: NuoF-SPA (NADH:ubiquinone oxidoreductase I, cytoplasmic subunit F, C-terminal SPA tag) (E. coli (endogenous in DY330)) (UniProt P31979)
# T3 sequence: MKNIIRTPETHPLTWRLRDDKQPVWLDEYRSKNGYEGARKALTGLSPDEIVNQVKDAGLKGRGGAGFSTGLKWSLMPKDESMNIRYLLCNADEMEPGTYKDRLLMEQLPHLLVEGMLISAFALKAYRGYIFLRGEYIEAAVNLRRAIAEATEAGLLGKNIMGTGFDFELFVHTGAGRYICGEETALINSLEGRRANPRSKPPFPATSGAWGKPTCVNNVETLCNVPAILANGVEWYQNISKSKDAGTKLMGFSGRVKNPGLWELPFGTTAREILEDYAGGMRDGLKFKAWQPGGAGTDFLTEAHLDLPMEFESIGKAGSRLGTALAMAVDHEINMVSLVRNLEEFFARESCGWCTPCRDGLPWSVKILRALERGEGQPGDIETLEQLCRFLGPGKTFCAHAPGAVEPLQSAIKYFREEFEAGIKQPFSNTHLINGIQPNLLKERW
# T4: NuoA-SPA (NADH:ubiquinone oxidoreductase I, membrane subunit A, C-terminal SPA tag) (E. coli (endogenous in DY330)) (UniProt P0AFC3)
# T4 sequence: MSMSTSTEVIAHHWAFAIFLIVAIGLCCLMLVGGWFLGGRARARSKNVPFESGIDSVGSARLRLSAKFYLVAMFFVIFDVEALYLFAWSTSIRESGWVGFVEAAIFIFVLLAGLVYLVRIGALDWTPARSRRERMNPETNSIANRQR
# T5: NuoCD-SPA (NADH:ubiquinone oxidoreductase I, fused cytoplasmic subunit CD, C-terminal SPA tag) (E. coli (endogenous in DY330)) (UniProt P33599)
# T5 sequence: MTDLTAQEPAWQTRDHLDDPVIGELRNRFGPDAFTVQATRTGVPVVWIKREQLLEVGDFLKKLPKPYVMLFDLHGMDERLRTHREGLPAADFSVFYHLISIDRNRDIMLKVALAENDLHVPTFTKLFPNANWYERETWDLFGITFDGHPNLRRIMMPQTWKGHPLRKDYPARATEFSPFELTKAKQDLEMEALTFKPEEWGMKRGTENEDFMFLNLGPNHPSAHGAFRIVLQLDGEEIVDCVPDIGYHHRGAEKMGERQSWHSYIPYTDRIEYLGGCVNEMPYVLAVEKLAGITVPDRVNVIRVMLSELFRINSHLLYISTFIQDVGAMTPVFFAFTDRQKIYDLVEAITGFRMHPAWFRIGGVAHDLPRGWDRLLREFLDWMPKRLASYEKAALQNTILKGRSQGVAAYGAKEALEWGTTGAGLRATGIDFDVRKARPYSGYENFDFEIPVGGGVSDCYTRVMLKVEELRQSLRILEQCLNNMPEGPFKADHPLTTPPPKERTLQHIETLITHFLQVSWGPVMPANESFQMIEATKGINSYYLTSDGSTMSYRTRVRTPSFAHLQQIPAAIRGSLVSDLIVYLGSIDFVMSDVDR
# B1: ViaA (VWA interacting with AAA+ ATPase) (protein, UniProt P0ADN0 1-483)
# chain: MLTLDTLNVMLAVSEEGLIEEMIIALLASPQLAVFFEKFPRLKAAITDDVPRWREALRSRLKDARVPPELTEEVMCYQQSQLLSTPQFIVQLPQILDLLHRLNSPWAEQARQLVDANSTITSALHTLFLQRWRLSLIVQATTLNQQLLEEEREQLLSEVQERMTLSGQLEPILADNNTAAGRLWDMSAGQLKRGDYQLIVKYGEFLNEQPELKRLAEQLGRSREAKSIPRNDAQMETFRTMVREPATVPEQVDGLQQSDDILRLLPPELATLGITELEYEFYRRLVEKQLLTYRLHGESWREKVIERPVVHKDYDEQPRGPFIVCVDTSGSMGGFNEQCAKAFCLALMRIALAENRRCYIMLFSTEIVRYELSGPQGIEQAIRFLSQQFRGGTDLASCFRAIMERLQSREWFDADAVVISDFIAQRLPDDVTSKVKELQRVHQHRFHAVAMSAHGKPGIMRIFDHIWRFDTGMRSRLLRRWRR
# Assays:
# [1] = target: T1, NuoE-SPA (NADH:ubiquinone oxidoreductase I, cytoplasmic subunit E, C-terminal SPA tag) (E. coli (endogenous in DY330)); assay: co-IP; aerobically grown DY330 (LB, 30°C overnight); SPA-tagged bait captured from cleared lysate on α-FLAG M2 affinity gel, 4°C 1 h; IP buffer 25 mM TrisHCl pH 7.5, 100 mM KCl, 10 mM MgCl2, 1 mM CaCl2, 0.2 mM EDTA, 1% Triton X-100, 10% glycerol, 0.5 mM DTT; eluted with 3xFLAG peptide; Western blot for RavA and ViaA; repeated in ΔviaA::cat strains for NuoA and NuoF
# [2] = target: T2, NuoG-SPA (NADH:ubiquinone oxidoreductase I, cytoplasmic subunit G, C-terminal SPA tag) (E. coli (endogenous in DY330)); assay: as above
# [3] = target: NuoB-SPA (NADH:ubiquinone oxidoreductase I, cytoplasmic subunit B, C-terminal SPA tag) (E. coli (endogenous in DY330)) (UniProt P0AFC7); assay: as above
# [4] = target: T3, NuoF-SPA (NADH:ubiquinone oxidoreductase I, cytoplasmic subunit F, C-terminal SPA tag) (E. coli (endogenous in DY330)); assay: as above
# [5] = target: T4, NuoA-SPA (NADH:ubiquinone oxidoreductase I, membrane subunit A, C-terminal SPA tag) (E. coli (endogenous in DY330)); assay: as above
# [6] = target: T5, NuoCD-SPA (NADH:ubiquinone oxidoreductase I, fused cytoplasmic subunit CD, C-terminal SPA tag) (E. coli (endogenous in DY330)); assay: as above
# [7] = target: T5, NuoCD-SPA (NADH:ubiquinone oxidoreductase I, fused cytoplasmic subunit CD, C-terminal SPA tag) (E. coli (endogenous in DY330)); assay: co-IP; anaerobically grown DY330 (LB, 30°C overnight); SPA-tagged bait captured from cleared lysate on α-FLAG M2 affinity gel, 4°C 1 h; same IP buffer; eluted with 3xFLAG peptide; Western blot for RavA and ViaA; repeated in a ΔviaA::cat strain for NuoCD
Molecule,binding [1],binding [2],binding [3],binding [4],binding [5],binding [6],binding [7]
RavA (Regulatory ATPase variant A) (from UniProt P31473 1-498),binds weakly,,,,,,
B1,,binds,binds weakly,binds,binds,binds,binds
